Binding data for two molecules are collected here from patent US20130216538A1.

The chains behind the UniProt entries cited, without tags or fusion partners. Residues count along the entry.
UniProt P07724, residues 25-608: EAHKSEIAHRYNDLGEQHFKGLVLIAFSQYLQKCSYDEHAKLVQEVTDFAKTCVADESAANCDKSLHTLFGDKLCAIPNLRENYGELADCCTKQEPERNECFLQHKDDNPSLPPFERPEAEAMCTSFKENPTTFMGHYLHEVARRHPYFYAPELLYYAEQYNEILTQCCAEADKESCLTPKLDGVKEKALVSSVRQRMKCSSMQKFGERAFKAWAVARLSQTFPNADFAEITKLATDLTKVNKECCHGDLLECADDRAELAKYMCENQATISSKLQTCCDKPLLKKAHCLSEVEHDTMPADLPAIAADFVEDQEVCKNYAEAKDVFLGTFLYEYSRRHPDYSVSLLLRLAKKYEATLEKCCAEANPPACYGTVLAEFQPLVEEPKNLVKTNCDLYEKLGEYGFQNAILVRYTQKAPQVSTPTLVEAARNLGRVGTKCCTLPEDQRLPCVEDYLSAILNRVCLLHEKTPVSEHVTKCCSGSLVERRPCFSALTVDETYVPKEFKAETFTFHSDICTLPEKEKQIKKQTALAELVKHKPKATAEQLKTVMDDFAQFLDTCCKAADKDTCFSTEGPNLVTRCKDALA

No constants are given. Whether binding was seen depends on the method and setting. Some results given as binding are weak or reduced against the parent protein; the word gives no strength.

The assay deals with mouse serum albumin (mouse) (UniProt P07724). As to the kind of experiment: ELISA: dAb captured on protein A, biotinylated MSA in solution.

B1: anti-serum albumin dAb clones 8, 10 (protein)
VH: EVQLLESGGGLVQPGGSLRLSCAASGFTFWVYQMDWVRQAPGKGLEWVSSISAFGAKTLYADSVKGRFTISRDNSKNTLYLQMNSLRAEDTAVYYCAKLSGKFDYWGQGTLVTVSS
In the case of B1, the binding result is reported as “binds”.

B2: anti-serum albumin dAb clone 36 (protein)
VH: EVQLLESGGGLVQPGGSLRLSCAASGFTFWSYQMTWVRQAPGKGLEWVSSISSFGSSTLYADSVKGRFTISRDNSKNTLYLQMNSLRAEDTAVYYCAKGRDHNYSLFDYWGQGTLVTVSS
B2: the binding result is reported as “binds”.
